From publication PMC4855144 come the findings set out here.

This assay deals with GFP-N-WASP ΔWA. The assay can be described thus: co-IP; GFP microbeads precipitate GFP-N-WASP and fragments ΔWA, WH1, WH1-GBD from HEK293T cell extracts; endogenous CRN7 detected with mAb K37-142-1; ratio of co-IP to IP.

Results are given in words; binding and its absence hold for the method and conditions named. Binding seen in cells or lysates may run through a third protein. Binding can be weak; no strength is given.

B1: endogenous CRN7 (Coronin7) of HEK293T cells (protein, UniProt P57737 1-925)
chain: MNRFRVSKFRHTEARPPRRESWISDIRAGTAPSCRNHIKSSCSLIAFNSDRPGVLGIVPLQGQGEDKRRVAHLGCHSDLVTDLDFSPFDDFLLATGSADRTVKLWRLPGPGQALPSAPGVVLGPEDLPVEVLQFHPTSDGILVSAAGTTVKVWDAAKQQPLTELAAHGDLVQSAVWSRDGALVGTACKDKQLRIFDPRTKPRASQSTQAHENSRDSRLAWMGTWEHLVSTGFNQMREREVKLWDTRFFSSALASLTLDTSLGCLVPLLDPDSGLLVLAGKGERQLYCYEVVPQQPALSPVTQCVLESVLRGAALVPRQALAVMSCEVLRVLQLSDTAIVPIGYHVPRKAVEFHEDLFPDTAGCVPATDPHSWWAGDNQQVQKVSLNPACRPHPSFTSCLVPPAEPLPDTAQPAVMETPVGDADASEGFSSPPSSLTSPSTPSSLGPSLSSTSGIGTSPSLRSLQSLLGPSSKFRHAQGTVLHRDSHITNLKGLNLTTPGESDGFCANKLRVAVPLLSSGGQVAVLELRKPGRLPDTALPTLQNGAAVTDLAWDPFDPHRLAVAGEDARIRLWRVPAEGLEEVLTTPETVLTGHTEKICSLRFHPLAANVLASSSYDLTVRIWDLQAGADRLKLQGHQDQIFSLAWSPDGQQLATVCKDGRVRVYRPRSGPEPLQEGPGPKGGRGARIVWVCDGRCLLVSGFDSQSERQLLLYEAEALAGGPLAVLGLDVAPSTLLPSYDPDTGLVLLTGKGDTRVFLYELLPESPFFLECNSFTSPDPHKGLVLLPKTECDVREVELMRCLRLRQSSLEPVAFRLPRVRKEFFQDDVFPDTAVIWEPVLSAEAWLQGANGQPWLLSLQPPDMSPVSQAPREAPARRAPSSAQYLEEKSDQQKKEELLNAMVAKLGNREDPLPQDSFEGVDEDEWD
Consider B1, for which the binding entry is recorded as “binds”.
